Counter-ions that a name gives are not always drawn. Some of the results follow. This data set is noisy: repeats of one test often differ as much as different tests do.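 Human fetal ventral-midbrain neural progenitor line ReNCell VM, differentiated without mitogens. Images stained for doublecortin (early neurons) or tyrosine hydroxylase (dopaminergic neurons) were scored by blinded raters against untreated wells (0 = no change). Repeats and both raters were averaged, and compounds averaging 2 or higher were picked as hits for retesting.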

The test system of the first test is ReNCell VM. As to the kind of experiment: dopaminergic neuron differentiation score (TH+ cell fraction vs untreated, manual image score) (score (0 to 3)); higher = more TH+ dopaminergic neuron differentiation. To be noted: library: LOPAC; 2 uM; 4 weeks; BDNF 10 ng/ml + GDNF 10 ng/ml.
As to `NCCC[C@](N)(C(=O)O)C(F)F` (racemic) [DL-alpha-Difluoromethylornithine hydrochloride], the “dopaminergic neuron differentiation score” value was inactive: 0.

As for `O=C(O)/C=C/c1ccc(O)c(O)c1` [Caffeic Acid], the “dopaminergic neuron differentiation score” value was active: 3.

Turning to `O=C(O)C1=CC(=C(c2ccc(O)c(C(=O)O)c2)c2ccc(O)c(C(=O)O)c2)C=CC1=O` [Aurintricarboxylic acid], the “dopaminergic neuron differentiation score” value was inactive: 0.

With `CC[N+](CC)(CC)CC(=O)Nc1c(C)cccc1C` [Lidocaine N-ethyl bromide quaternary salt], the “dopaminergic neuron differentiation score” value is inactive: 0.

As for `CCc1cccc(N(C)C(=N)Nc2cccc3ccccc23)c1`, the “dopaminergic neuron differentiation score” value is inactive: 0.

The test is the same for the next values; noted with them: library: Prestwick; 2 uM; 4 weeks; BDNF 10 ng/ml + GDNF 10 ng/ml.
In the case of `CCN(CC)CCOC(=O)C(Cc1cccc2ccccc12)CC1CCCO1` (stereo unspecified) [Nafronyl oxalate], the “dopaminergic neuron differentiation score” value was inactive: 0.

Take `Clc1ccc(C(Cn2ccnc2)OCc2ccsc2Cl)c(Cl)c1` (stereo unspecified) [Tioconazole]: the “dopaminergic neuron differentiation score” value is inactive: 0.

Take `CC1CNc2c(cccc2S(=O)(=O)N[C@@H](CCCNC(=N)N)C(=O)N2CC[C@@H](C)C[C@@H]2C(=O)O)C1` (stereo partly specified) [Argatroban]: the “dopaminergic neuron differentiation score” value was inactive: 0.

Turning to `CCN(CC)CCc1nc(-c2ccccc2)no1` [Oxalamine citrate salt], the “dopaminergic neuron differentiation score” value is inactive: 0.

Regarding `C1CCC(C(CC2CCCCN2)C2CCCCC2)CC1` (stereo unspecified) [Perhexiline maleate], the “dopaminergic neuron differentiation score” value was inactive: 0.

The same test, now with this note: library: Spectrum; 2 uM; 4 weeks; BDNF 10 ng/ml + GDNF 10 ng/ml.
As for `COc1ccc(-c2cc(=O)c3c(O)c(OC)c(O[C@@H]4O[C@H](CO[C@@H]5O[C@@H](C)[C@H](O)[C@@H](O)[C@H]5O)[C@@H](O)[C@H](O)[C@H]4O)cc3o2)cc1`, the “dopaminergic neuron differentiation score” value was inactive: 0.

Regarding `C#C[C@]1(OC(C)=O)CC[C@H]2[C@@H]3CCC4=CC(=NO)CC[C@@H]4[C@H]3CC[C@@]21CC` (mixture of isomers), the “dopaminergic neuron differentiation score” value is inactive: 0.

Regarding `C1N2CN3CN1CN(C2)C3`, the “dopaminergic neuron differentiation score” value is inactive: 0.

Take `CC(=O)OC1CCC2(C)C(=CCC3C2CCC2(C)C(C(C)CCCC(C)C)CCC32)C1` (stereo unspecified): the “dopaminergic neuron differentiation score” value is inactive: 0.

On to `CN(C)c1ccc(O)c2c1C[C@H]1C[C@H]3[C@H](N(C)C)C(O)=C(C(N)=O)C(=O)[C@@]3(O)C(O)=C1C2=O`, for which the “dopaminergic neuron differentiation score” value is inactive: 0.

As for `O=C1CC[C@]23/C=C/C(=O)NCCCCNCCCNC(=O)/C=C/c4ccc(c2c4)O[C@@H]3C1`, the “dopaminergic neuron differentiation score” value was inactive: 0.

With `CC(C)Cn1cnc2c(N)nc3ccccc3c21`, the “dopaminergic neuron differentiation score” value is inactive: 0.

On to `CC(C)=CCC[C@@H](C)[C@H]1CC[C@@]2(C)C3=C(CC[C@]12C)[C@@]1(C)CC[C@H](O)C(C)(C)[C@@H]1CC3`, for which the “dopaminergic neuron differentiation score” value is inactive: 0.

`CCCCCCCCCCCCCCCCCCOCC(O)CO` (stereo unspecified): the “dopaminergic neuron differentiation score” value is inactive: 0.

Take `C[C@H](CS)C(=O)N1CCC[C@H]1C(=O)O`: the “dopaminergic neuron differentiation score” value was inactive: 0.

Take `CC(C)CCC[C@@H](C)[C@H]1CC[C@H]2[C@@H]3CC=C4CC(=O)CC[C@]4(C)[C@H]3CC[C@]12C`: the “dopaminergic neuron differentiation score” value was inactive: 0.

`Cc1cc(-c2ccc(/N=N/c3ccc4c(S(=O)(=O)O)cc(S(=O)(=O)O)c(N)c4c3O)c(C)c2)ccc1/N=N/c1ccc2c(S(=O)(=O)O)cc(S(=O)(=O)O)c(N)c2c1O`: the “dopaminergic neuron differentiation score” value is inactive: 0.

On to `CCCc1cc(C(N)=S)ccn1`, for which the “dopaminergic neuron differentiation score” value was inactive: 0.

With `CC(=O)N[C@@H]([C@@H](O)[C@H](O)[C@H](O)CO)[C@@H](O)CC(=O)C(=O)O`, the “dopaminergic neuron differentiation score” value was inactive: 0.

As to `COc1ccc([C@@H]2CC(=O)c3c(O)cc(O)cc3O2)cc1O`, the “dopaminergic neuron differentiation score” value was inactive: 0.

`COC1(C)CCC2OC2(C)CCC2C1CC2(C)C` (stereo unspecified): the “dopaminergic neuron differentiation score” value was inactive: 1.

Take `CCc1cccc2c3c([nH]c12)C(CC)(CC(=O)O)OCC3` (stereo unspecified): the “dopaminergic neuron differentiation score” value was inactive: 0.

In the case of `C=C(C)[C@@H]1CC[C@]2(C(=O)O)CC[C@]3(C)[C@H](CC[C@@H]4[C@@]5(C)CC[C@H](O)C(C)(C)[C@@H]5CC[C@]43C)[C@@H]12`, the “dopaminergic neuron differentiation score” value was inactive: 0.

With `C[C@@H]1O[C@@H](O[C@H]2[C@H](Oc3cc(O)c4c(c3)O[C@H](c3ccc(O)cc3)CC4=O)O[C@H](CO)[C@@H](O)[C@@H]2O)[C@H](O)[C@H](O)[C@H]1O`, the “dopaminergic neuron differentiation score” value is inactive: 0.

On to `CCCc1ncc(C[n+]2ccccc2C)c(N)n1`, for which the “dopaminergic neuron differentiation score” value is inactive: 0.

Turning to `CO[C@H]1C[C@H](O[C@H]2[C@H](C)[C@@H](O[C@@H]3O[C@H](C)C[C@H](N(C)C)[C@H]3O)[C@@H](C)C[C@@]3(CO3)C(=O)[C@H](C)[C@@H](O)[C@@H](C)[C@@H](C)OC(=O)[C@@H]2C)O[C@@H](C)[C@@H]1O`, the “dopaminergic neuron differentiation score” value was inactive: 0.
